Measurements from patent US20180055946 (published 2018).

Assay: peptide made by a vendor
Conditions: whole synthesis

KGGSCSGGK
purity (crude or final not stated): 97.49%

Where a sequence shows no end group, the ends are not given.
